# Drug screen on melanoma cell lines: apoptosis marker

Drug key:
bexarotene, 10 µM: C=C(c1ccc(C(=O)O)cc1)c1cc2c(cc1C)C(C)(C)CCC2(C)C
vatalanib, 10 µM: Clc1ccc(Nc2nnc(Cc3ccncc3)c3ccccc23)cc1
GW441756, 2 µM: Cn1cc(/C=C2\C(=O)Nc3cccnc32)c2ccccc21
fingolimod, 10 µM: CCCCCCCCc1ccc(CCC(N)(CO)CO)cc1
JZL184, 5 µM: O=C(Oc1ccc([N+](=O)[O-])cc1)N1CCC(C(O)(c2ccc3c(c2)OCO3)c2ccc3c(c2)OCO3)CC1
erlotinib, 4 µM: C#Cc1cccc(Nc2ncnc3cc(OCCOC)c(OCCOC)cc23)c1
MK-1775, 0.1 µM: C=CCn1c(=O)c2cnc(Nc3ccc(N4CCN(C)CC4)cc3)nc2n1-c1cccc(C(C)(C)O)n1
KU-0063794, 0.1 µM: COc1ccc(-c2ccc3c(N4CCOCC4)nc(N4C[C@@H](C)O[C@@H](C)C4)nc3n2)cc1CO
AZD7762, 0.1 µM: NC(=O)Nc1cc(-c2cccc(F)c2)sc1C(=O)N[C@H]1CCCNC1
selumetinib, 0.075 µM: Cn1cnc2c(F)c(Nc3ccc(Br)cc3Cl)c(C(=O)NOCCO)cc21
PF-562271, 0.4 µM: CN(c1ncccc1CNc1nc(Nc2ccc3c(c2)CC(=O)N3)ncc1C(F)(F)F)S(C)(=O)=O
MK-2206, 2 µM: NC1(c2ccc(-c3nc4ccn5c(=O)[nH]nc5c4cc3-c3ccccc3)cc2)CCC1

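Human melanoma cell lines in 1,536-well plates were treated with two drugs together for 72 h, then fixed, stained and imaged. Each value is the cleaved-PARP-positive fraction of nuclei relative to DMSO-treated wells, in %, so that 100 equals the control and higher values mean more apoptosis. Concentrations were fixed for each drug; these are the higher of two levels. No replicate spread is given; individual values may be noisy. The marker varies much from line to line, for technical or biological reasons.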 This is part of the screen, not chosen by result. An entry leaves out what has no value listed here. A dash means that no value is listed here.

With fingolimod + selumetinib the screen read LB2518-MEL: 41300; COLO 829: 285; IPC-298: 227; A375: 229; UACC-257: 129; MEL-HO: 141. With MK-1775 + vatalanib the screen read LB2518-MEL: 64.4; COLO 829: 141; IPC-298: 315; UACC-257: 41.3; MEL-HO: 69.0. For bexarotene + erlotinib the values were LB2518-MEL: 333; COLO 829: 71.4; IPC-298: 193; A375: 79.1; UACC-257: 29.2; MEL-HO: 27.2. bexarotene + JZL184 gave LB2518-MEL: 134; COLO 829: 98.1; IPC-298: 49.2; A375: 202; UACC-257: 37.0; MEL-HO: 259. GW441756 + JZL184 gave LB2518-MEL: 56.0; COLO 829: 126; IPC-298: 90.6; A375: 26.4; UACC-257: 16.2; MEL-HO: 88.4. Results for KU-0063794 + fingolimod are LB2518-MEL: 46800; COLO 829: 1130; IPC-298: 111; A375: 60.0; UACC-257: 214; MEL-HO: 1740.

For JZL184 + erlotinib the values were LB2518-MEL: 80.4; COLO 829: 157; IPC-298: 122; A375: 39.6; UACC-257: 40.7; MEL-HO: 682. For vatalanib + KU-0063794 the values were LB2518-MEL: 120; COLO 829: 200; IPC-298: 66.6; A375: 115; UACC-257: 27.9; MEL-HO: 101. fingolimod + vatalanib gave LB2518-MEL: 35900; COLO 829: 350; IPC-298: 10300; A375: 44.8; UACC-257: 239; MEL-HO: 11100. With vatalanib + MK-2206 the screen read LB2518-MEL: 123; COLO 829: 284; IPC-298: 186; A375: 140; UACC-257: 86.8; MEL-HO: 94.8. For vatalanib + selumetinib the values were LB2518-MEL: 232; COLO 829: 276; IPC-298: 211; A375: 90.7; UACC-257: 126; MEL-HO: 65.5. MK-1775 + bexarotene gave LB2518-MEL: 94.7; COLO 829: 351; IPC-298: 265; UACC-257: 44.3; MEL-HO: 71.2.

With fingolimod + AZD7762 the screen read LB2518-MEL: 16300; COLO 829: 151; IPC-298: 305; UACC-257: 119; MEL-HO: 3960. For AZD7762 + MK-1775 the values were LB2518-MEL: 345; COLO 829: 179; IPC-298: 372; UACC-257: 85.0; MEL-HO: 77.0. Results for MK-2206 + fingolimod are LB2518-MEL: 10100; COLO 829: 43.1; IPC-298: 117; A375: 164; UACC-257: 104; MEL-HO: 1260. For KU-0063794 + bexarotene the values were LB2518-MEL: 197; COLO 829: 120; IPC-298: 162; A375: 63.4; UACC-257: 35.1; MEL-HO: 45.5. With GW441756 + KU-0063794 the screen read COLO 829: 76.3; IPC-298: 67.1; A375: 42.5; UACC-257: 22.8; MEL-HO: 62.4. For selumetinib + MK-2206 the values were LB2518-MEL: 398; COLO 829: 217; IPC-298: 179; A375: 59.7; UACC-257: 92.7; MEL-HO: 134.

For JZL184 + selumetinib the values were LB2518-MEL: 271; COLO 829: 65.2; IPC-298: 64.2; A375: 28.0; UACC-257: 19.0; MEL-HO: 297. erlotinib + MK-1775 gave LB2518-MEL: 106; COLO 829: 126; IPC-298: 323; UACC-257: 156; MEL-HO: 86.9. For KU-0063794 + PF-562271 the values were LB2518-MEL: 67.0; COLO 829: 86.6; IPC-298: 44.6; A375: 40.4; UACC-257: 61.8; MEL-HO: 87.5. GW441756 + vatalanib gave LB2518-MEL: 96.6; COLO 829: 97.7; IPC-298: 192; A375: 60.9; UACC-257: 529; MEL-HO: 67.6. Results for AZD7762 + PF-562271 are LB2518-MEL: 316; COLO 829: 110; IPC-298: 133; UACC-257: 112; MEL-HO: 72.6. For vatalanib + AZD7762 the values were LB2518-MEL: 139; COLO 829: 110; IPC-298: 75.8; UACC-257: 124; MEL-HO: 215.

fingolimod + MK-1775 gave LB2518-MEL: 24600; COLO 829: 200; IPC-298: 105; UACC-257: 151; MEL-HO: 330. With selumetinib + AZD7762 the screen read LB2518-MEL: 134; COLO 829: 124; IPC-298: 263; UACC-257: 60.8; MEL-HO: 196. For bexarotene + selumetinib the values were COLO 829: 97.6; IPC-298: 53.4; A375: 43.5; UACC-257: 75.2; MEL-HO: 181. For JZL184 + MK-2206 the values were LB2518-MEL: 89.1; COLO 829: 149; IPC-298: 100; A375: 136; UACC-257: 69.3; MEL-HO: 91.5. With JZL184 + KU-0063794 the screen read LB2518-MEL: 60.9; COLO 829: 80.7; IPC-298: 52.7; A375: 76.5; UACC-257: 32.1; MEL-HO: 26.2. For PF-562271 + vatalanib the values were LB2518-MEL: 390; COLO 829: 227; IPC-298: 248; A375: 188; UACC-257: 142; MEL-HO: 62.3.

With MK-1775 + KU-0063794 the screen read LB2518-MEL: 54.6; COLO 829: 127; IPC-298: 138; A375: 671; UACC-257: 21.2; MEL-HO: 59.1. With KU-0063794 + AZD7762 the screen read LB2518-MEL: 127; COLO 829: 144; IPC-298: 118; A375: 513; UACC-257: 7.6; MEL-HO: 176. Results for PF-562271 + JZL184 are LB2518-MEL: 110; COLO 829: 72.6; IPC-298: 119; A375: 119; UACC-257: 77.3; MEL-HO: 176. With erlotinib + vatalanib the screen read LB2518-MEL: 110; COLO 829: 104; IPC-298: 904; A375: 138; UACC-257: 97.3; MEL-HO: 115.

Repeated from the top, 3 entries:

| Combination | LB2518-MEL | COLO 829 | IPC-298 | A375 | UACC-257 | MEL-HO |
|---|---|---|---|---|---|---|
| fingolimod + selumetinib | 41300 | 285 | 227 | 229 | 129 | 141 |
| MK-1775 + vatalanib | 64.4 | 141 | 315 | - | 41.3 | 69.0 |
| bexarotene + erlotinib | 333 | 71.4 | 193 | 79.1 | 29.2 | 27.2 |

Source: doi:10.1371/journal.pone.0140310, primary screening data, rounded.